# PubChem BioAssay AID686943 – Drosophila RNAi Screening Center | 2013
# Screen: 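Fly genes whose loss alters ERK activation after insulin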 (primary screen)
# Cells: Drosophila S2R+ haemocyte-like cells expressing YFP-tagged ERK (Rolled)
# Reagents: long dsRNA against Drosophila genes
# Conditions: insulin stimulation versus unstimulated cells; dose and duration not given
# Measured: 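Per-plate z-scores of phospho-ERK immunostaining normalised to YFP-tagged ERK, measured with and without insulin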
# Reading the numbers: replicate 1, z-score of dpERK with insulin and replicate 2, z-score of dpERK with insulin: higher = more active ERK per ERK-YFP after insulin; replicate 1, z-score of dpERK under basal conditions: higher = more basal active ERK per ERK-YFP
# The deposit covers about 23,000 reagents; below is a random part of those that have a named target and a result. 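Extra replicates exist only for a retested subset of genes; insulin dose and duration not given; both raised and lowered dpERK matter.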 The numbers tell different reagents against one gene apart. Further read-outs or replicates are left out here. Reagent sequences are not shown. Not stated in the record: the amount of reagent, the time to read-out.
target gene,dsRNA no.,"replicate 1, z-score of dpERK with insulin","replicate 2, z-score of dpERK with insulin","replicate 1, z-score of dpERK under basal conditions"
Ilp1 (Insulin-like peptide 1),1,-0.39,0.16,-0.45
Ttc30 (Tetratricopeptide repeat domain 30),1,0.11,-0.31,0.46
CG9737,1,0.08,-0.23,0.57
moon (moonshiner),1,-0.67,-0.23,-0.32
TyrR (Tyramine receptor),1,0.78,-0.73,0.58
TyrR (Tyramine receptor),2,3.98,0.32,0.01
NAT1,1,0.18,-1.01,-0.3
Tsp29Fa (Tetraspanin 29Fa),1,-0.7,0,-0.23

Reprinted from the entries so far, 2 entries:
target gene,dsRNA no.,"replicate 1, z-score of dpERK with insulin","replicate 2, z-score of dpERK with insulin","replicate 1, z-score of dpERK under basal conditions"
CG9737,1,0.08,-0.23,0.57
moon (moonshiner),1,-0.67,-0.23,-0.32

The listing continues:
target gene,dsRNA no.,"replicate 1, z-score of dpERK with insulin","replicate 2, z-score of dpERK with insulin","replicate 1, z-score of dpERK under basal conditions"
hep (hemipterous),1,1.21,1.25,0.72
hep (hemipterous),2,0.2,0.26,0.61
PAN2 (Poly(A)-binding protein-dependent poly(A) ribonuclease 2),1,-0.55,-0.18,1.74
PolE2 (DNA polymerase epsilon subunit 2),1,-0.8,-1.74,0
ghi (ghiberti),1,0.75,2.05,2.99
CG11353,1,-0.18,0.99,0.4
CG8031,1,-0.13,0.12,-1.16
IFT43 (Intraflagellar transport 43),1,-0.25,-0.62,0.17
Ythdf (YTH N6-methyladenosine RNA binding protein),1,0.5,0.05,-0.21
Ythdf (YTH N6-methyladenosine RNA binding protein),2,0.02,-0.21,0.72
CG4610,1,0.33,-0.05,-0.3
CG4610,2,0.19,0.17,-1.1
mtrm (matrimony),1,-1.74,-2.49,-0.24
CG31275,1,-0.44,-1.24,0.85
His3.3A (Histone H3.3A),1,-4.3,-4.94,-2.77
